Here are results for two substances from paper PMC4893672.

Protein sequences, listed by entry. Tags and fused reporters are not part of them.
UniProt Q99836: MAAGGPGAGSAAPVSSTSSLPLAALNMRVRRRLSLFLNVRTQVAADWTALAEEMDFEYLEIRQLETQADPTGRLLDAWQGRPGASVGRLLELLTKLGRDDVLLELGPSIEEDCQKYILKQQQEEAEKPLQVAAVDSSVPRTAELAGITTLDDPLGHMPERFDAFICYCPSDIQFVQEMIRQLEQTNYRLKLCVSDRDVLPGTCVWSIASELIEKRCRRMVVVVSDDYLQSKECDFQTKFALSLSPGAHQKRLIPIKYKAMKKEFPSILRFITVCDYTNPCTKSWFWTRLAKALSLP
UniProt P27448: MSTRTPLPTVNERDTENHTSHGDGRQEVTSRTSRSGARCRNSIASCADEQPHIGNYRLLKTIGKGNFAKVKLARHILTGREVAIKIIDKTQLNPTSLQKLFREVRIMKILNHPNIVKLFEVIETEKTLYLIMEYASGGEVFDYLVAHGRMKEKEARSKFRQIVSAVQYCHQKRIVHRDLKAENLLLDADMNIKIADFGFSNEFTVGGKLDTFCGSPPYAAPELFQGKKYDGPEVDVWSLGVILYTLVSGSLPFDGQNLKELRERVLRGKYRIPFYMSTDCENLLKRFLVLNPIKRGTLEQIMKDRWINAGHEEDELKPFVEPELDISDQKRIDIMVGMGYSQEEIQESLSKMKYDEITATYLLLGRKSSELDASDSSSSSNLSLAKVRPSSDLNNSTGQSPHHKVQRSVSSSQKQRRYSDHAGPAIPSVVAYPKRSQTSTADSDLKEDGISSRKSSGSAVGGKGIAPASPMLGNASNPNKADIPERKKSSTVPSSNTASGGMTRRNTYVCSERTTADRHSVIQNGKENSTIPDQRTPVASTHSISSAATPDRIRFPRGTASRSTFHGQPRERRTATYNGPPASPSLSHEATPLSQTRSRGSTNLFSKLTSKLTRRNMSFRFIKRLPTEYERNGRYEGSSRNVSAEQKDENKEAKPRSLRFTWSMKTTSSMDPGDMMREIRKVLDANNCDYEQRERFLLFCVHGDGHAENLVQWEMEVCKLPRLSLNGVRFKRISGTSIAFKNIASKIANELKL

The target of one assay is FLAG-PQS1-MyD88 (human) (UniProt Q99836). Briefly: co-IP; HEK293T cells transfected with pairs of FLAG-PQS1- and Myc-PQS2-tagged proteins; anti-FLAG or anti-Myc antibody coupled to magnetic beads; on-bead tryptic digestion; PQS1 and PQS2 peptides quantified by SRM against heavy labeled peptides.
In the next assay the target is FLAG-PQS1-Ras (human) (UniProt P01112). Described as above.

Results are given in words; binding and its absence hold for the method and conditions named. In cells and extracts the contact can be indirect.

“Myc-PQS2-MARK3 (from UniProt P27448 1-753)”: in the assay with FLAG-PQS1-MyD88 (human), the binding entry is recorded as “no binding”.
In the case of “Myc-PQS2-Mal (from UniProt P58753 1-221)”, the binding result with FLAG-PQS1-Ras (human) was “no binding”.
